# Test results as given in the supplement of paper PMC10849652.
# By UniProt entry, the sequences of proteins in these tests, tags left out. Where a name states a change or a piece, a line headed by the entry shows the natural chain unless it says otherwise.
# UniProt O15066: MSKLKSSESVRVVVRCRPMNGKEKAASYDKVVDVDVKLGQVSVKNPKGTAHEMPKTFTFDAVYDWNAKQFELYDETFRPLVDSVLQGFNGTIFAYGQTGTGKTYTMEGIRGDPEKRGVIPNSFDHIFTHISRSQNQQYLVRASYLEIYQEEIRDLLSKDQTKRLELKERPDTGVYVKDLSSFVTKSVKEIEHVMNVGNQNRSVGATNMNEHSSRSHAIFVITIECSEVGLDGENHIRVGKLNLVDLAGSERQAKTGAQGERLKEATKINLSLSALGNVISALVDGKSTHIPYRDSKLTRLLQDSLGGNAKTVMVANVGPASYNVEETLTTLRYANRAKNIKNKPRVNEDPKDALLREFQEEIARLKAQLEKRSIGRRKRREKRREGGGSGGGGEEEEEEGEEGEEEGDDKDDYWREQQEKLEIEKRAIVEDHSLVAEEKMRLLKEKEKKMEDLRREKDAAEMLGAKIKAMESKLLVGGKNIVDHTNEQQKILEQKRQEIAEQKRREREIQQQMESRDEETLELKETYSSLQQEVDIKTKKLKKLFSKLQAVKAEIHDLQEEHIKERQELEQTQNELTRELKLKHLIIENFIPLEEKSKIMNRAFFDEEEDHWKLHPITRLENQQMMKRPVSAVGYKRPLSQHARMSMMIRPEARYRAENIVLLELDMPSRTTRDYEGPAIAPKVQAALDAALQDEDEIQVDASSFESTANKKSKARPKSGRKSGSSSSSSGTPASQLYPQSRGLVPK
# UniProt O60333: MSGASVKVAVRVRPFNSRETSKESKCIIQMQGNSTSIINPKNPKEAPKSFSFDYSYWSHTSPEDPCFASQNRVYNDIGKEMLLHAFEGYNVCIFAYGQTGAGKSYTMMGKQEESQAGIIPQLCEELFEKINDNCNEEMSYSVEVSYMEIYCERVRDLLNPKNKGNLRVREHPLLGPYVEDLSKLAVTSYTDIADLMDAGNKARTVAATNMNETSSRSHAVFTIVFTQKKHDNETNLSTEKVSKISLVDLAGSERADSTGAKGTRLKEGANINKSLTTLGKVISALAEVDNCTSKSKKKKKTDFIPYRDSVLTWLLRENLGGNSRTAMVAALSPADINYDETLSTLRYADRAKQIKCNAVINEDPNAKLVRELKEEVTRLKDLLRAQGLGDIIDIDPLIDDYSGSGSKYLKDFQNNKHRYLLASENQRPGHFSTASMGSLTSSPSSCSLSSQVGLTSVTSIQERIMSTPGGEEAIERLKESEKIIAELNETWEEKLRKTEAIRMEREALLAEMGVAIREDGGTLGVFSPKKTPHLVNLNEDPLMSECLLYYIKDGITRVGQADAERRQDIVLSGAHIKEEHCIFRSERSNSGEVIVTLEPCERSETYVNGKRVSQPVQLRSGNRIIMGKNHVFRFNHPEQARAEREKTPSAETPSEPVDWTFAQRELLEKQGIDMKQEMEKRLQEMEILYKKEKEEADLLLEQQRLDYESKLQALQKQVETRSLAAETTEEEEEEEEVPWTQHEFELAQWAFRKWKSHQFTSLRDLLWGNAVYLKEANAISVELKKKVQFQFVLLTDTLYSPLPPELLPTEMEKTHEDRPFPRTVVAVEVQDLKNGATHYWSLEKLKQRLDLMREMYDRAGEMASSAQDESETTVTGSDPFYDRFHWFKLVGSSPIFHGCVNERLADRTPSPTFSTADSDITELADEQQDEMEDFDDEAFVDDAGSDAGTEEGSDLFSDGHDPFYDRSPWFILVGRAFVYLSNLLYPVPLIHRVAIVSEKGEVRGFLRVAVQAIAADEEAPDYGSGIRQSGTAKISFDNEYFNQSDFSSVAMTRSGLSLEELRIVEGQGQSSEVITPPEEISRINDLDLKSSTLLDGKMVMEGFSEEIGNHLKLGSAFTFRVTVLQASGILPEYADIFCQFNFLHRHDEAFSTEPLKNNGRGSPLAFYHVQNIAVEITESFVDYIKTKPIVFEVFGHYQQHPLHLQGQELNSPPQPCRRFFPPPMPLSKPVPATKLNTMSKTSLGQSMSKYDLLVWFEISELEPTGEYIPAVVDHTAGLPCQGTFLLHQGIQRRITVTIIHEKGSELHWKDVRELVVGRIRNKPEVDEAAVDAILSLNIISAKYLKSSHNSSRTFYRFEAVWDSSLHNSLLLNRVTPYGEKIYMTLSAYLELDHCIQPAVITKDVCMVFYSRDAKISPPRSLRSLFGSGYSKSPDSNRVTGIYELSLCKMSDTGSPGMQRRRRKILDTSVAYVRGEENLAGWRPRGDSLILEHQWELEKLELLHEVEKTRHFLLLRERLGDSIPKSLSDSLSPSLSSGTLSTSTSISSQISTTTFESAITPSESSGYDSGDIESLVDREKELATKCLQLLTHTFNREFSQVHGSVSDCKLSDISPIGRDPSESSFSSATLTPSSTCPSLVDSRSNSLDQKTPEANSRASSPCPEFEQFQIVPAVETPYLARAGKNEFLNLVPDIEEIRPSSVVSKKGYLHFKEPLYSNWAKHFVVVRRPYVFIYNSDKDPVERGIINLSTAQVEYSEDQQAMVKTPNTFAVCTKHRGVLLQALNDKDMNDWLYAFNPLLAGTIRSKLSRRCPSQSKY
# UniProt Q99661: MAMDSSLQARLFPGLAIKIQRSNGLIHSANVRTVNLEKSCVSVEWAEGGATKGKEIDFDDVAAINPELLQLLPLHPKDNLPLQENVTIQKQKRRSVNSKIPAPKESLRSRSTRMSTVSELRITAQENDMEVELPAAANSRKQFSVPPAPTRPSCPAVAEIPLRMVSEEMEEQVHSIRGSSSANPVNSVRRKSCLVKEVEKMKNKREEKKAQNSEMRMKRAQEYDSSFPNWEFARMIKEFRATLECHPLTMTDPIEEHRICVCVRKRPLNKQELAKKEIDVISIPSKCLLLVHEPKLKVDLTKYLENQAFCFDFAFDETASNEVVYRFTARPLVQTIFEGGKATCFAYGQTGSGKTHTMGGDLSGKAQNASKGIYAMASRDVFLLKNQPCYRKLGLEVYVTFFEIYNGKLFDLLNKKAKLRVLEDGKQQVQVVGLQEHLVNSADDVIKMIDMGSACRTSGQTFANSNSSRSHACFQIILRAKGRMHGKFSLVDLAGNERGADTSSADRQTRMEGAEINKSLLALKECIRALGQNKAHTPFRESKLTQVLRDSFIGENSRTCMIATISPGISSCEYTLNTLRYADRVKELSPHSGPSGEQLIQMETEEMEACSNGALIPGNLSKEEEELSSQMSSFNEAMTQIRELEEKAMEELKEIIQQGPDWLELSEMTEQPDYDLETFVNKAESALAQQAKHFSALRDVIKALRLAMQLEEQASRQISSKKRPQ
# UniProt O95279: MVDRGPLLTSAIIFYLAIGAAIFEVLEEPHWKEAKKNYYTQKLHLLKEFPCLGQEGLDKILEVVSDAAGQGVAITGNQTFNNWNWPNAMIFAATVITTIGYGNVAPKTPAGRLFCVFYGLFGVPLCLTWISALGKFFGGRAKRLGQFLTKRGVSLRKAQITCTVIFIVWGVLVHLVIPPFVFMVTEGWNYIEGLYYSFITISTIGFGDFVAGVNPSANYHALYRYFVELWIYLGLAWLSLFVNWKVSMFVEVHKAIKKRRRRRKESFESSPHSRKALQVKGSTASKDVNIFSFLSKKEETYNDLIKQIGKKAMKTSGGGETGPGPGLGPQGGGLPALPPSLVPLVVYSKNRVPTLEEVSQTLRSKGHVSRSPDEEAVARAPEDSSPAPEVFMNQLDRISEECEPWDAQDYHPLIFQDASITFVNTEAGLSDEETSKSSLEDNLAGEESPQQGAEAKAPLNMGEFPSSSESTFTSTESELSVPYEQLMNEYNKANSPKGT
# UniProt Q8TBB5: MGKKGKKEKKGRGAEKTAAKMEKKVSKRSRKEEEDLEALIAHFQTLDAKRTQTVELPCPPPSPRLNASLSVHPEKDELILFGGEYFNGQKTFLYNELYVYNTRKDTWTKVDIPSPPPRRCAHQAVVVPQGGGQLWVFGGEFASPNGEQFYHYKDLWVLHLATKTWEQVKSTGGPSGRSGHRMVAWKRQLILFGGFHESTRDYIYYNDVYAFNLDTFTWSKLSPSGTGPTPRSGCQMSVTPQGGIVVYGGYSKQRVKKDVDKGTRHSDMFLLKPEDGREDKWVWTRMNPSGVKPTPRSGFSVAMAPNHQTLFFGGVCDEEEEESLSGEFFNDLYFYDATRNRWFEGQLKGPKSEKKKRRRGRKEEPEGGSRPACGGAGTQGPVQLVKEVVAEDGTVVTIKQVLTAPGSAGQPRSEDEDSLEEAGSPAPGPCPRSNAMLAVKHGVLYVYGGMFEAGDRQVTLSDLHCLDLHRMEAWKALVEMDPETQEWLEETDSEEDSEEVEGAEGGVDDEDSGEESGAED
# UniProt Q8NC54: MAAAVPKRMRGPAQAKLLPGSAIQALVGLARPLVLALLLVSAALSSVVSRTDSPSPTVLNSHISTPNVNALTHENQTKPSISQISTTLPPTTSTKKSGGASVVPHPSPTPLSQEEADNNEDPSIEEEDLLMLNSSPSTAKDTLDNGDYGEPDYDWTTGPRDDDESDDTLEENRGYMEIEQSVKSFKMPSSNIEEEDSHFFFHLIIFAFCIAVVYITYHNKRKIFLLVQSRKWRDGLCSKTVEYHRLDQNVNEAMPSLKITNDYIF
# UniProt Q9BVG8: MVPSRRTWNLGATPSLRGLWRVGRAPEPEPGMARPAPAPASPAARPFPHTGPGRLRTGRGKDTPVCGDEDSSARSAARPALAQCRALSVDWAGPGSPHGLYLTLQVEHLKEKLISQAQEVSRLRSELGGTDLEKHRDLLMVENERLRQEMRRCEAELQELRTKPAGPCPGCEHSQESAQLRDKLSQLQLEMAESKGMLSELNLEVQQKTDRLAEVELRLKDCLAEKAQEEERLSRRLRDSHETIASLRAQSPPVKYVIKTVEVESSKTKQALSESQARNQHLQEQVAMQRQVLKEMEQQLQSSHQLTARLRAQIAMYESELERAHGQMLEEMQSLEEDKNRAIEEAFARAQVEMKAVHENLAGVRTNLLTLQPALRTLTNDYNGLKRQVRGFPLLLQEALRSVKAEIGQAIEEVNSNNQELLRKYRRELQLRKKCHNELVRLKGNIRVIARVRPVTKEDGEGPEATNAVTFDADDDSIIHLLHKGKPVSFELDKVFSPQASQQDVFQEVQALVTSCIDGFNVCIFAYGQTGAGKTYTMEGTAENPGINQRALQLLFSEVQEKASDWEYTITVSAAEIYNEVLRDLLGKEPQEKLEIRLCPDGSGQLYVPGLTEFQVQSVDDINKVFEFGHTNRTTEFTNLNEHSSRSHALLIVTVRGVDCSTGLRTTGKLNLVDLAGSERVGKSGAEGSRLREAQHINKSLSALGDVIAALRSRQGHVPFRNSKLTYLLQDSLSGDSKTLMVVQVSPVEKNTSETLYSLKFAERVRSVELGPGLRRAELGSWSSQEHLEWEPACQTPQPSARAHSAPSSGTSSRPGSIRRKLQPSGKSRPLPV
# UniProt Q9Y664: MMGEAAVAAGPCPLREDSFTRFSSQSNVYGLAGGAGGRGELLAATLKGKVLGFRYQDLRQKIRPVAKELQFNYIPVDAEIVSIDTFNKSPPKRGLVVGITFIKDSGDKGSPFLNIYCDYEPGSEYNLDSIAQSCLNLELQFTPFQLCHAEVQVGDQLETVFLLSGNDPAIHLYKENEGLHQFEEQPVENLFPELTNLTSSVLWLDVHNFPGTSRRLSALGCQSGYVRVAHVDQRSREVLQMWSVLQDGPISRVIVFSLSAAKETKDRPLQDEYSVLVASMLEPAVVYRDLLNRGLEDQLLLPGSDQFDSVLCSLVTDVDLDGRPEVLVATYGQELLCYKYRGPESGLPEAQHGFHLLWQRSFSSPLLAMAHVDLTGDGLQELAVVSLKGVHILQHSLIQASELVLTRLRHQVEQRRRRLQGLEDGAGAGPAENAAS
# UniProt Q8WVZ9: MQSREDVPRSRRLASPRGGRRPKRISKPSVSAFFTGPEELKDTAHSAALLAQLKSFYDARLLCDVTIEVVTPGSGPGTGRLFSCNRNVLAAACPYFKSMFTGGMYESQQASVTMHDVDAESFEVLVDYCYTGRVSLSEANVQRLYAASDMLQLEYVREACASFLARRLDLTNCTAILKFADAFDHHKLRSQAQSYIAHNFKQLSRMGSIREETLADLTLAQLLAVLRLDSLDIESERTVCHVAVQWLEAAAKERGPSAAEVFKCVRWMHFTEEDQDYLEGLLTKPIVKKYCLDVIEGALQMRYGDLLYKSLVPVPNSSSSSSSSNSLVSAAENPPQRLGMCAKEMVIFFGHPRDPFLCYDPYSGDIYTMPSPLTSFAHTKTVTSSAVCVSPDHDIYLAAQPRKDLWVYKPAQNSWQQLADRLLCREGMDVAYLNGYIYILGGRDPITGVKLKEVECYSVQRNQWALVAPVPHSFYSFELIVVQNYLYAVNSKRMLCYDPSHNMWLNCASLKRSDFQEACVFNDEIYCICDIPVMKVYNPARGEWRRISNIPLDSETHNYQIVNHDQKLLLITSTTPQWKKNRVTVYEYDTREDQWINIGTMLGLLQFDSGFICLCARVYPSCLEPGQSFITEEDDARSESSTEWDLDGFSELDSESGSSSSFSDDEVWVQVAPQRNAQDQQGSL
# This is one part of the list.
# Tests used:
# Experiment in all cases: log2 fold change, soluble protein after heating vs DMSO (PISA); higher = thermal stabilisation; K562 cells, 10 uM, 30 min; active = over 0.2 and 3.5 SD of the protein, either way, in both replicates (recomputed)
# [1] = compound: CS(=O)(=O)c1ccc(-c2cnc(N)c(C(=O)Nc3ccccc3)n2)cc1
# Method in brief: (§1)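 For each measurement, 10 μM compound was applied for 30 min to K562 cells at 2×10^6 cells/mL. Aliquots were heated for 3 min across 48°C-58°C, pooled, and extracted in PBS with 0.5% NP-40 at 4°C; the supernatant after 21,000xg for 90 min was soluble protein. This was quantified by TMTpro 16plex LC-MS/MS with channel sums equalised, and thermal stability was reported relative to control samples from duplicates, on a log2 fold-change scale.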
# crizotinib = compound: C[C@@H](Oc1cc(-c2cnn(C3CCNCC3)c2)cnc1N)c1c(Cl)ccc(F)c1Cl [crizotinib]
# Method in brief: as §1
# [2] = compound: C[C@@H]1COCCN1C2=NC(=NC(=C2)C3(CC3)S(=O)(=O)C)C4=C5C=CNC5=CC=C4
# Method in brief: as §1
# [3] = compound: C[C@H](C1=CC=C(C=C1)C(=O)NC2=C3C=CNC3=NC=C2)N
# Method in brief: as §1
# gandotinib = compound: Cc1cc(Nc2cc(CN3CCOCC3)c3nc(C)c(Cc4ccc(Cl)cc4F)n3n2)n[nH]1 [gandotinib]
# Method in brief: as §1
# [4] = compound: Cc1cc(SCc2sc(-c3ccc(C(F)(F)F)cc3)nc2C)ccc1OCC(=O)O
# Method in brief: as §1
# doramapimod = compound: Cc1ccc(-n2nc(C(C)(C)C)cc2NC(=O)Nc2ccc(OCCN3CCOCC3)c3ccccc23)cc1 [doramapimod]
# Method in brief: as §1
# ispinesib = compound: Cc1ccc(C(=O)N(CCCN)[C@@H](c2nc3cc(Cl)ccc3c(=O)n2Cc2ccccc2)C(C)C)cc1 [ispinesib]
# Method in brief: as §1
# bafetinib = compound: Cc1ccc(NC(=O)c2ccc(CN3CC[C@H](N(C)C)C3)c(C(F)(F)F)c2)cc1Nc1nccc(-c2cncnc2)n1 [bafetinib]
# Method in brief: as §1
# [5] = compound: Cc1cccc(CC(=O)N2CCc3c2ccc(-c2cn(C)c4ncnc(N)c24)c3F)n1
# Method in brief: as §1
# nilotinib = compound: Cc1cn(-c2cc(NC(=O)c3ccc(C)c(Nc4nccc(-c5cccnc5)n4)c3)cc(C(F)(F)F)c2)cn1 [nilotinib]
# Method in brief: as §1
# [6] = compound: Cc1nc(Nc2n[nH]c3c2CN(C(=O)N[C@H](CN(C)C)c2ccccc2)C3(C)C)c2sccc2n1
# Method in brief: as §1
# dasatinib = compound: Cc1nc(Nc2ncc(C(=O)Nc3c(C)cccc3Cl)s2)cc(N2CCN(CCO)CC2)n1 [dasatinib]
# Method in brief: as §1
# [7] = compound: Cc1ncc(-c2ccnc(Nc3ccc(S(C)(=O)=O)cc3)n2)n1C(C)C
# Method in brief: as §1
# [8] = compound: Cn1cc(-c2ccc3c(c2)CCN3C(=O)Cc2cccc(C(F)(F)F)c2)c2c(N)ncnc21
# Method in brief: as §1
# [9] = compound: Cn1cc(-c2ccc3nnc(C(F)(F)c4ccc5ncccc5c4)n3n2)cn1
# Method in brief: as §1
# tipifarnib = compound: Cn1cncc1[C@@](N)(c1ccc(Cl)cc1)c1ccc2c(c1)c(-c1cccc(Cl)c1)cc(=O)n2C [tipifarnib]
# Method in brief: as §1
# mubritinib = compound: FC(F)(F)c1ccc(/C=C/c2nc(COc3ccc(CCCCn4ccnn4)cc3)co2)cc1 [mubritinib]
# Method in brief: as §1
# tozasertib = compound: Cc1cc(Nc2cc(N3CCN(C)CC3)nc(Sc3ccc(NC(=O)C4CC4)cc3)n2)n[nH]1 [tozasertib]
# Method in brief: as §1
# duvelisib = compound: C[C@H](Nc1ncnc2nc[nH]c12)c1cc2cccc(Cl)c2c(=O)n1-c1ccccc1 [duvelisib]
# Method in brief: as §1
Target,log2 fold change [1],log2 fold change (crizotinib),log2 fold change [2],log2 fold change [3],log2 fold change (gandotinib),log2 fold change [4],log2 fold change (doramapimod),log2 fold change (ispinesib),log2 fold change (bafetinib),log2 fold change [5],log2 fold change (nilotinib),log2 fold change [6],log2 fold change (dasatinib),log2 fold change [7],log2 fold change [8],log2 fold change [9],log2 fold change (tipifarnib),log2 fold change (mubritinib),log2 fold change (tozasertib),log2 fold change (duvelisib)
IWS1 (UniProt Q96ST2),inactive: 0.077,inactive: 0.146,inactive: 0.132,inactive: 0.119,inactive: 0.108,inactive: 0.062,inactive: -0.134,inactive: 0.061,inactive: 0.018,inactive: -0.022,inactive: -0.024,inactive: 0.092,inactive: -0.054,active: 0.311,inactive: -0.013,inactive: 0.022,inactive: -0.021,inactive: 0.035,,
KIF21A isoform 4 (UniProt Q7Z4S6),inactive: 0.092,inactive: -0.039,inactive: 0.027,inactive: 0.207,inactive: -0.001,inactive: 0.044,inactive: 0.047,inactive: -0.153,inactive: 0.051,inactive: 0.079,inactive: -0.104,inactive: 0.083,inactive: -0.193,inactive: 0.037,inactive: -0.066,inactive: -0.073,inactive: -0.039,inactive: 0.11,,
KIF3B (UniProt O15066),inactive: -0.004,inactive: -0.018,inactive: 0.054,inactive: 0.03,inactive: -0.199,inactive: -0.023,inactive: 0.076,inactive: 0.04,inactive: 0.007,inactive: 0.122,,,inactive: -0.06,,inactive: 0.002,inactive: -0.048,inactive: -0.07,inactive: 0.115,,
KIF1B isoform 4 (UniProt O60333),inactive: 0.002,inactive: -0.067,inactive: 0.048,inactive: 0.035,inactive: -0.043,inactive: 0.052,inactive: 0.029,inactive: -0.149,inactive: -0.056,inactive: -0.004,inactive: 0.01,inactive: 0.073,inactive: -0.066,inactive: -0.064,inactive: -0.044,inactive: 0.033,inactive: -0.004,inactive: -0.004,,
KIF2C (UniProt Q99661),inactive: -0.016,inactive: -0.171,inactive: -0.028,inactive: 0.012,inactive: -0.065,inactive: 0.082,inactive: 0.007,inactive: -0.028,inactive: 0.1,inactive: 0.122,inactive: -0.082,inactive: -0.054,inactive: -0.15,inactive: 0.032,inactive: 0.053,inactive: 0.039,inactive: -0.103,inactive: 0.081,,
KCNK5 (UniProt O95279),inactive: 0.087,inactive: -0.164,inactive: 0.339,inactive: -0.013,inactive: -0.03,inactive: 0.242,inactive: -0.165,,inactive: -0.31,inactive: 0.025,,,inactive: -0.472,,inactive: 0.139,,inactive: -0.183,inactive: 0.076,,
KLHDC4 (UniProt Q8TBB5),inactive: 0.093,inactive: 0.157,inactive: -0.07,inactive: 0.111,inactive: 0.041,inactive: 0.039,inactive: 0.069,inactive: 0,inactive: 0.012,inactive: -0.018,inactive: 0,inactive: -0.067,inactive: 0.107,inactive: 0.156,inactive: -0.175,inactive: -0.23,inactive: 0.106,inactive: -0.333,,
KIAA0513 (UniProt O60268),inactive: 0.133,inactive: -0.04,,inactive: 0.001,inactive: 0.167,,inactive: -0.051,,inactive: -0.165,inactive: -0.25,inactive: -0.262,inactive: -0.171,,inactive: 0.164,inactive: -0.161,,inactive: 0.021,inactive: -0.113,inactive: 0.036,
KCT2 (UniProt Q8NC54),inactive: 0,inactive: -0.186,inactive: 0.074,inactive: -0.04,inactive: 0.038,inactive: 0.054,inactive: 0.091,inactive: -0.118,inactive: -0.114,inactive: 0.045,inactive: -0.01,inactive: -0.023,inactive: 0.045,inactive: 0.021,inactive: 0.01,inactive: 0.073,inactive: 0.125,inactive: 0.052,,
KPNB1 (UniProt Q14974),inactive: -0.027,inactive: -0.201,inactive: -0.038,inactive: 0.047,inactive: -0.09,inactive: 0.083,inactive: 0.026,inactive: -0.225,inactive: 0.029,inactive: 0.029,inactive: -0.129,inactive: -0.09,inactive: -0.072,inactive: -0.018,inactive: -0.09,inactive: -0.045,inactive: -0.12,inactive: 0.019,,
KIAA1324L (UniProt A8MWY0),inactive: 0.081,inactive: -0.125,inactive: 0.06,inactive: 0.062,inactive: 0.076,inactive: -0.057,inactive: 0.051,inactive: -0.124,inactive: -0.099,inactive: 0.022,inactive: 0.042,inactive: -0.031,inactive: 0.025,inactive: -0.003,inactive: 0.022,inactive: 0.029,inactive: 0.047,inactive: 0.091,,
KHDC4 (UniProt Q7Z7F0),inactive: 0.045,inactive: -0.091,inactive: 0,inactive: -0.074,inactive: -0.052,inactive: 0.207,inactive: -0.054,inactive: 0.027,inactive: -0.051,inactive: 0.057,inactive: 0.063,inactive: -0.054,inactive: -0.009,inactive: -0.053,inactive: -0.006,inactive: -0.053,inactive: -0.133,inactive: 0.004,,
KIFC3 isoform 6 (UniProt Q9BVG8),inactive: 0.112,,inactive: 0.165,,inactive: 0.082,,,inactive: -0.27,inactive: -0.142,inactive: -0.26,inactive: -0.171,inactive: 0.088,,inactive: -0.08,,inactive: 0.187,,inactive: 0.088,inactive: -0.116,
KAT8 isoform 2 (UniProt Q9H7Z6),inactive: -0.009,,,inactive: -0.07,inactive: -0.05,inactive: -0.132,,inactive: -0.096,inactive: -0.109,inactive: -0.087,inactive: -0.053,inactive: -0.033,inactive: 0.115,inactive: -0.007,inactive: 0.034,inactive: -0.046,inactive: -0.028,inactive: 0.101,inactive: 0.017,inactive: 0.071
KLHL18 (UniProt O94889),inactive: 0.092,,inactive: 0.078,inactive: -0.084,active: -0.561,inactive: 0.02,,inactive: 0.028,inactive: 0.027,inactive: -0.252,inactive: 0.005,inactive: -0.021,inactive: -0.187,inactive: 0.025,inactive: 0.061,inactive: -0.027,inactive: 0.044,inactive: -0.017,,
KMT2C isoform 3 (UniProt Q8NEZ4),inactive: 0.013,,inactive: 0.021,inactive: 0.022,inactive: -0.106,inactive: -0.048,,inactive: -0.235,inactive: -0.209,inactive: -0.041,inactive: -0.049,inactive: -0.093,inactive: 0.043,inactive: 0.001,inactive: 0.094,inactive: -0.215,,inactive: 0.083,,
KPTN (UniProt Q9Y664),,inactive: -0.112,inactive: 0.276,inactive: -0.055,inactive: -0.033,inactive: 0.036,inactive: -0.016,inactive: 0.042,inactive: -0.158,inactive: 0.118,inactive: 0.009,inactive: -0.005,inactive: -0.141,inactive: -0.02,inactive: 0.196,inactive: 0.063,inactive: 0.003,inactive: 0.006,inactive: -0.078,inactive: -0.006
KRIT1 (UniProt O00522),inactive: 0.179,,inactive: -0.2,inactive: 0.202,inactive: -0.129,inactive: -0.145,,inactive: -0.061,inactive: 0.009,inactive: 0.054,inactive: 0.198,inactive: 0.003,inactive: -0.109,inactive: 0.035,inactive: -0.174,inactive: -0.064,inactive: -0.034,,,inactive: 0.078
KDM2B (UniProt Q8NHM5),inactive: 0.06,,,,,,,,inactive: 0.058,,,,,,,,,,,
KBTBD7 (UniProt Q8WVZ9),inactive: 0.365,,,,inactive: 0.031,inactive: 0.211,,,,inactive: -0.075,inactive: 0.023,inactive: -0.065,inactive: -0.027,inactive: -0.014,,,,,,inactive: 0.032

# Some of the entries above, reformatted.
Target	log2 fold change [1]	log2 fold change (crizotinib)	log2 fold change [2]	log2 fold change [3]	log2 fold change (gandotinib)	log2 fold change [4]	log2 fold change (doramapimod)	log2 fold change (ispinesib)	log2 fold change (bafetinib)	log2 fold change [5]	log2 fold change (nilotinib)	log2 fold change [6]	log2 fold change (dasatinib)	log2 fold change [7]	log2 fold change [8]	log2 fold change [9]	log2 fold change (tipifarnib)	log2 fold change (mubritinib)	log2 fold change (tozasertib)	log2 fold change (duvelisib)
KLHDC4 (UniProt Q8TBB5)	inactive: 0.093	inactive: 0.157	inactive: -0.07	inactive: 0.111	inactive: 0.041	inactive: 0.039	inactive: 0.069	inactive: 0	inactive: 0.012	inactive: -0.018	inactive: 0	inactive: -0.067	inactive: 0.107	inactive: 0.156	inactive: -0.175	inactive: -0.23	inactive: 0.106	inactive: -0.333		
KIAA0513 (UniProt O60268)	inactive: 0.133	inactive: -0.04		inactive: 0.001	inactive: 0.167		inactive: -0.051		inactive: -0.165	inactive: -0.25	inactive: -0.262	inactive: -0.171		inactive: 0.164	inactive: -0.161		inactive: 0.021	inactive: -0.113	inactive: 0.036	
